In patent publication US12378320B2, “Methods for treating pancreatitis” (Cold Spring Harbor Laboratory, priority 2018, dated 2025):

Tested on: CA19-9 modified proteins
Assay: CA19-9 IP/MS (iTRAQ) of organoid conditioned media after Dox treatment
Parameters: species or system mouse
Conditions: for 17 8H 5B1 / 17 8H NS19 / 17 0H NS19: A217 (genetic negative) organoids conditioned media; for 17 8H 5B1 / 17 8H NS19: after 8 hours of treatment; for 17 8H 5B1 / 20 0H 5B1: CA19-9 IP with 5B1; for 17 8H 5B1 / 17 8H NS19 / 20 0H 5B1: relative to 17 0H NS19; for 17 8H NS19 / 17 0H NS19: CA19-9 IP with NS19-9; for 17 0H NS19 / 20 0H 5B1: before treatment (0H); for 17 0H NS19: relative abundance, reference channel; for 20 0H 5B1: A220 (C;R^LSL;F) organoids conditioned media

B1: P24549 (protein, UniProt P24549 1-501, looked up)
chain: MSSPAQPAVPAPLADLKIQHTKIFINNEWHNSVSGKKFPVLNPATEEVICHVEEGDKADVDKAVKAARQAFQIGSPWRTMDASERGRLLNKLADLMERDRLLLATMEALNGGKVFANAYLSDLGGCIKALKYCAGWADKIHGQTIPSDGDIFTYTRREPIGVCGQIIPWNFPMLMFIWKIGPALSCGNTVVVKPAEQTPLTALHLASLIKEAGFPPGVVNIVPGYGPTAGAAISSHMDVDKVAFTGSTQVGKLIKEAAGKSNLKRVTLELGGKSPCIVFADADLDIAVEFAHHGVFYHQGQCCVAASRIFVEESVYDEFVKRSVERAKKYVLGNPLTPGINQGPQIDKEQHDKILDLIESGKKEGAKLECGGGRWGNKGFFVQPTVFSNVTDEMRIAKEEIFGPVQQIMKFKSVDDVIKRANNTTYGLAAGLFTKDLDKAITVSSALQAGVVWVNCYMMLSAQCPFGGFKMSGNGRELGEHGLYEYTELKTVAMKISQKNS
modifications: full-length
B1 was tested, and the “17 8H 5B1” value was 5.654, the “17 8H NS19” value was 0.713 and the “17 0H NS19” value was 1. The “20 0H 5B1” value was 4.672.

B2: Q8R1B4 (protein, UniProt Q8R1B4 1-911, looked up)
chain: MSRFFTTGSDSESESSLSGEELVTKPVSGNYGKQPLLLSEDEEDTKRVVRSAKDKRFEELTNLIRTIRNAMKIRDVTKCLEEFELLGKAYGKAKSIVDKEGVPRFYIRILADLEDYLNELWEDKEGKKKMNKNNAKALSTLRQKIRKYNRDFESHITNYKQNPEQSADEDAEKNEEDSEGSSDEDEDEDGVGNTTFLKKKQESSGESRKFHKKMEDDDEDSEDSEDEEWDTSSTSSDSDSEEEEGKQTVLASKFLKKAPTTEEDKKAAEKKREDKAKKKHDRKSKRLDEEEEDNEGGEWERVRGGVPLVKEKPKMFAKGTEITHAVVIKKLNEILQVRGKKGTDRATQIELLQLLVQIAAENNLGVGVIVKIKFNIIASLYDYNPNLATYMKPEMWQMCLDCINELMDTLVAHSNIFVGENILEESENLHNFDQPLRVRGCILTLVERMDEEFTKIMQNTDPHSQEYVEHLKDEAQVCAIIERVQRYLEEKGTTEEICQIYLRRILHTYYKFDYKAHQRQLTPPEGSSKSEQDQAENEGEDSAVLMERLCKYIYAKDRTDRIRTCAILCHIYHHALHSRWYQARDLMLMSHLQDNIQHADPPVQILYNRTMVQLGICAFRQGLTKDAHNALLDIQSSGRAKELLGQGLLLRSLQERNQEQEKVERRRQVPFHLHINLELLECVYLVSAMLLEIPYMAAHESDARRRMISKQFHHQLRVGERQPLLGPPESMREHVVAASKAMKMGDWKTCHSFIINEKMNGKVWDLFPEADKVRTMLVRKIQEESLRTYLFTYSSVYDSISMETLSDMFELDLPTVHSIISKMIINEELMASLDQPTQTVVMHRTEPTAQQNLALQLAEKLGSLVENNERVFDHKQGTYGGYFRDQKDGYRKNEGYMRRGGYRQQQSQTAY
modifications: full-length
In the case of B2, the “17 8H 5B1” value is reported as 0.914, the “17 8H NS19” value is reported as 0.281 and the “17 0H NS19” value is reported as 1. The “20 0H 5B1” value was 0.96.

B3: P31254 (protein, UniProt P31254 1-1058, looked up)
chain: MSSSVLSKKRKVSGPDSSLDSSWSPTYSVMFGVPPGPTNEMSKNKEMDIDESLYSRQLYVLGHEAMKHLQASSVLISGLQGLGVEIAKNIILGGVKAVTLHDQGIAQWADLSSQFCLREEDIGKNRAEISQPRLAELNSYVPVFAYTGPLIEEFLSGFQVVVLTNTPLEYQLQVGEFCHSHGIKLVVADTRGLVGQLFCDFGEEMILTDSNGEQPLSAMVSMITKENPGIVTCLEDSRHGFESGDFISFTEVQGMSELNGIGPIEIKVLGPYTFSICDTSSFSEYIRGGIVSQVKVPRKINFKPLLASLAEPEFVVTDFAKCCHPAQLHIGFQALHQFCTQHSRPPRPHNEEDAEELVTLAQSVNAQALPAVQQDCLDIDLIRKLAYVAAGDLAPMNAFFGGLAAQEVMKACSGKFMPIRQWLYFDALECLPEHRVAFMEDKCLPHQNRYDGQVAVFGSDLQEKLGKQKYFLVGAGAIGCELLKNFAMIGLGCGEDGEITVTDMDTIEKSNLNRQFLFRPWDITKLKSETAAAAVRDINPHIRIFSHQNRVGPETEHVYDDDFFQKLDGVANALDNVDARLYVDRRCVYYRKPLLESGTLGTKGNVQVVVPFLTESYSSSQDPPEKSIPICTLKNFPNAIEHTVQWARDEFEGLFKQSAENVNQYLTDPKFMERTLQLAGTQPLEVLEAIHCSLVLQRPQTWADCVTWAYQHWHTQYSHNIQQLLHNFPPAQLTSSGALFWSGPKRCPHPLTFDINNPLHLDYVMAAANLFAQTYGLGGSQDCAVVAKLLQSLPVPKFAPKSGIRIHVSEQELQSTSATTIDDSHLEELKTALPTPDKLLGFKMYPIDFEKDDDSNFHMDFIVAASNLRAENYGISPADRHKSKLIAGKIIPAIATTTSAIVGLVCLELYKVVQGHQQLESYKNSFINLALPLFSFSAPLAPECHQYYDQEWTLWDRFDVQGLQPSGEEMTLKQFLDYFKTEHKLEVIMLSQGVSMLYSVFMPASKLKERLDQPMTEIVSCVSKQKLGHHVKSLVFELCCNSDSGDDIEVPYVRYIIR
modifications: full-length
For B3, the “17 8H 5B1” value was 3.007, the “17 8H NS19” value was 0.694 and the “17 0H NS19” value was 1. For the same molecule, the “20 0H 5B1” value was 2.462.

B4: P07759 (protein, UniProt P07759 1-418, looked up)
chain: MAFIVAMGMILMAGICPAVLCFPDGTKEMDIVFHEHQDNGTQDDSLTLASVNTDFAFSLYKKLALKNPDTNIVFSPLSISAALALVSLGAKGKTMEEILEGLKFNLTETPEADIHQGFGNLLQSLSQPEDQDQINIGNAMFIEKDLQILAEFHEKTRALYQTEAFTADFQQPTEAKNLINDYVSNQTQGMIKELISELDERTLMVLVNYIYFKGKWKISFDPQDTFESEFYLDEKRSVKVPMMKMKLLTTRHFRDEELSCSVLELKYTGNASALLILPDQGRMQQVEASLQPETLRKWRKTLFPSQIEELNLPKFSIASNYRLEEDVLPEMGIKEVFTEQADLSGITETKKLSVSQVVHKAVLDVAETGTEAAAATGVIGGIRKAILPAVHFNRPFLFVIYHTSAQSILFMAKVNNPK
modifications: full-length
In the case of B4, the “17 8H 5B1” value is reported as 0.945, the “17 8H NS19” value is reported as 0.955 and the “17 0H NS19” value is reported as 1. The “20 0H 5B1” value was 0.95.

B5: P28665 (protein, UniProt P28665 1-1476, looked up)
chain: MWKSRRAQLCLFSVLLAFLHSASLLNGDSKYMVLVPSQLYTETPEKICLHLYQLNETVTVTASLVSQSGRKNLFDELVLDKDLFQCVSFIIPRLSSSDEEDFLYVDIKGPTHEFSKRKAVLVKNKESVVFVQTDKPVYKPGQSVKFRVVSMDKMLRPLNELLPLAYIEDPKKNRIMQWRDIKTENGLKQMSFSLAAEPIQGPYKIVVHKESGEKEEHSFTVMEFVLPRFNVDLKVPNAMSVNDEVLSVTACGKYTYGKPVPGHVKINVCRETETGCREVNSQLDNNGCSTQEVNITELQSKKRNYEVQLFHVNATVTEEGTGLEFSRSGTTKIERITNKLIFLKADSHFRHGIPFFVKVRLVDIKGDPIPNEKVFIKAQELSYTSATTTDQHGLAEFSIDTTCISGSSLHIKVNHKEEDSCSYFYCMEERHASAKHVAYAVYSLSKSYIYLDTETSSILPCNQIHTVQAHFILKGDLGVLKELIFYYLVMAQGSIIQTGNHTHQVEPGEAPVKGKFALEIPVEFSMVPMAKMLIYTILPDGEVIADSVNFEIEKCLRNKVDLRFSTSQSLPASQTRLQVTASPQSLCGLRAVDQSVLLLKPESELSPSWIYNLPGMQQNKFVPSSRLSEDQEDCILYSSWLAEKHTNLVPHGTEKDVYRYVEDMGLTAFTNLMIKLPIICFDYGMVPISAPRVEFDLAFTPEISWSLRTTLSKRPEEPPRKDPSSNDPLTETIRKYFPETWVWDIVTVNSTGLAEVEMTVPDTITEWKAGALCLSNDTGLGLSSVVPLQAFKPFFVEVSLPYSVVRGEAFMLKATVMNYLPTSMQMSVQLEASPDFTAVPVGDDQDSYCLSANGRHTSSWLVTPKSLGNVNFSVSAEAQQSSEPCGSEVATVPETGRKDTVVKVLIVEPEGIKQEHTFSSLFCASDAEISEKMSLVLPPTVVKDSARAHFSVMGDILSSAIRNTQNLLHMPYGCGEQNMVLFAPNIYVLKYLNETQQLTQKIKTKALGFLRAGYQRELNYKHKDGSYSAFGDQNGEREGNTWLTAFVLKSFAQARAFIFIDESHITHAFTWLSQKQKDNGCFRSSGSLFNNAMKGGVDDEMTLSAYITMALLESSLPATHPVVSKALSCLESSWKTIEQERNASFVYTKALMAYAFALAGNQNKRDEILKSLDEEAIKENNSIHWKRPQKSRKSEHHLYKPQASSAEVEMNAYVVLARLTAQPAPSPEDLTLSMSTIMWLTKQQNSNGGFSSTQDTVVALDALSKYGAVTFSRSQKTTLVTIQSTGSFSQKFQVENSNRLLLQQVALPDIPGDYTISVSGEGCVYAQTMLRYNMHLEKQLSAFAIWVQTVPLTCNNPKGHNSFQISLEISYTGSRPASNMVIADVKMLSGFIPLKPTVKKLERLEHVSRTEVSNNNVLIYLDQVTNQTLAFSFIIQQDIPVRNLQPAIVKVYDYYETDEMAFAEYSSPCSTDKQNV
modifications: full-length
For B5, the “17 8H 5B1” value was 0.583, the “17 8H NS19” value was 0.906 and the “17 0H NS19” value was 1. For the same molecule, the “20 0H 5B1” value was 0.447.

B6: Q9DCH4 (protein, UniProt Q9DCH4 1-361, looked up)
chain: MASPAVPANVPPATAAAAPAPVVTAAPASAPTPSTPAPTPAATPAASPAPVSSDPAVAAPAAPGQTPASAPAPAQTPAPSQPGPALPGPFPGGRVVRLHPVILASIVDSYERRNEGAARVIGTLLGTVDKHSVEVTNCFSVPHNESEDEVAVDMEFAKNMYELHKKVSPNELILGWYATGHDITEHSVLIHEYYSREAPNPIHLTVDTGLQHGRMSIKAYVSTLMGVPGRTMGVMFTPLTVKYAYYDTERIGVDLIMKTCFSPNRVIGLSSDLQQVGGASARIQDALSTVLQYAEDVLSGKVSADNTVGRFLMSLVNQVPKIVPDDFETMLNSNINDLLMVTYLANLTQSQIALNEKLVNL
modifications: full-length
B6 was tested, and the “17 8H 5B1” value was 3.033, the “17 8H NS19” value was 0.378 and the “17 0H NS19” value was 1. The “20 0H 5B1” value was 2.683.
